Measured data: PubChem BioAssay AID1224828 (NIAID, 2016)
Here is an unselected part of about 17,000 deposited reagents. Over the whole deposit, 762 (4.5%) got an active call. 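Active calls include both raised and lowered p65 entry, mostly lowered; wells with fewer than 50 cells lack a z-score.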 Raw values vary from plate to plate and are shown uncorrected.

Screen: 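Knock-downs that increase or decrease LPS-induced p65 nuclear translocation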 (primary screen)
Cell system: mouse RAW264.7 G9 macrophage reporter cells (GFP-p65, Tnf promoter-mCherry)
Reagents: siRNA pool against mouse genes, 100 nM
Time to read-out: 2 days siRNA transfection, then 40 min LPS before fixation
Challenge: LPS (Salmonella minnesota R595) at 10 ng/ml
Measured: 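Microscopy ratio of nuclear to perinuclear-ring GFP-p65 signal, scaled to the plate median; gene score is the average of two replicate robust z-scores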
Scale: p65 translocation robust z-score: higher = more nuclear NF-kappaB p65 after LPS than the plate median; nuclear/cytoplasmic p65 ratio: higher = more nuclear NF-kappaB p65
Rule for the call: 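Active if robust z is above 3.3 (negative regulators) or below -1.56, the Tlr4 control median (positive regulators); activity score 50 or more; control wells not called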
Meaning of the calls: active = hit (p65 shift raised or lowered); inactive = no clear change

Rab40c
- p65 translocation robust z-score: 0.03
- nuclear/cytoplasmic p65 ratio, rep 1: 1.56
- nuclear/cytoplasmic p65 ratio, rep 2: 1.48
- low cell count flag: enough cells to score
- outcome: inactive

Scn4a
- p65 translocation robust z-score: 1.25
- nuclear/cytoplasmic p65 ratio, rep 1: 1.71
- nuclear/cytoplasmic p65 ratio, rep 2: 1.84
- low cell count flag: enough cells to score
- outcome: inactive

Skap2
- p65 translocation robust z-score: -0.42
- nuclear/cytoplasmic p65 ratio, rep 1: 1.42
- nuclear/cytoplasmic p65 ratio, rep 2: 1.49
- low cell count flag: enough cells to score
- outcome: inactive

Magi1
- p65 translocation robust z-score: -0.24
- nuclear/cytoplasmic p65 ratio, rep 1: 1.64
- nuclear/cytoplasmic p65 ratio, rep 2: 1.52
- low cell count flag: enough cells to score
- outcome: inactive

Pip5k1c
- p65 translocation robust z-score: 1.52
- nuclear/cytoplasmic p65 ratio, rep 1: 1.56
- nuclear/cytoplasmic p65 ratio, rep 2: 1.74
- low cell count flag: enough cells to score
- outcome: inactive

BC049715
- p65 translocation robust z-score: -0.92
- nuclear/cytoplasmic p65 ratio, rep 1: 1.37
- nuclear/cytoplasmic p65 ratio, rep 2: 1.33
- low cell count flag: enough cells to score
- outcome: inactive

Klhl2
- p65 translocation robust z-score: 0.32
- nuclear/cytoplasmic p65 ratio, rep 1: 1.59
- nuclear/cytoplasmic p65 ratio, rep 2: 1.46
- low cell count flag: enough cells to score
- outcome: inactive

Pts
- p65 translocation robust z-score: -0.71
- nuclear/cytoplasmic p65 ratio, rep 1: 1.45
- nuclear/cytoplasmic p65 ratio, rep 2: 1.38
- low cell count flag: enough cells to score
- outcome: inactive

Nsg1
- p65 translocation robust z-score: -0.68
- nuclear/cytoplasmic p65 ratio, rep 1: 1.55
- nuclear/cytoplasmic p65 ratio, rep 2: 1.48
- low cell count flag: enough cells to score
- outcome: inactive

Tpd52l1
- p65 translocation robust z-score: -0.8
- nuclear/cytoplasmic p65 ratio, rep 1: 1.37
- nuclear/cytoplasmic p65 ratio, rep 2: 1.44
- low cell count flag: enough cells to score
- outcome: inactive

Nfam1
- p65 translocation robust z-score: -1.63
- nuclear/cytoplasmic p65 ratio, rep 1: 1.05
- nuclear/cytoplasmic p65 ratio, rep 2: 1.1
- low cell count flag: enough cells to score
- outcome: active

Or4e2
- p65 translocation robust z-score: -0.26
- nuclear/cytoplasmic p65 ratio, rep 1: 1.5
- nuclear/cytoplasmic p65 ratio, rep 2: 1.45
- low cell count flag: enough cells to score
- outcome: inactive

Galk2
- p65 translocation robust z-score: -0.93
- nuclear/cytoplasmic p65 ratio, rep 1: 1.53
- nuclear/cytoplasmic p65 ratio, rep 2: 1.27
- low cell count flag: enough cells to score
- outcome: inactive

Cidea
- p65 translocation robust z-score: 0.05
- nuclear/cytoplasmic p65 ratio, rep 1: 1.49
- nuclear/cytoplasmic p65 ratio, rep 2: 1.38
- low cell count flag: enough cells to score
- outcome: inactive

Dtnb
- p65 translocation robust z-score: -0.83
- nuclear/cytoplasmic p65 ratio, rep 1: 1.38
- nuclear/cytoplasmic p65 ratio, rep 2: 1.26
- low cell count flag: enough cells to score
- outcome: inactive

2810408A11Rik
- nuclear/cytoplasmic p65 ratio, rep 1: 1.24
- nuclear/cytoplasmic p65 ratio, rep 2: 1.36
- low cell count flag: fewer than 50 cells per well; well left out of scoring
- outcome: inactive

Adgb
- p65 translocation robust z-score: 0.95
- nuclear/cytoplasmic p65 ratio, rep 1: 1.7
- nuclear/cytoplasmic p65 ratio, rep 2: 1.81
- low cell count flag: enough cells to score
- outcome: inactive

Dmac2l
- p65 translocation robust z-score: 0.37
- nuclear/cytoplasmic p65 ratio, rep 1: 1.55
- nuclear/cytoplasmic p65 ratio, rep 2: 1.65
- low cell count flag: enough cells to score
- outcome: inactive

Lims2
- p65 translocation robust z-score: 1.29
- nuclear/cytoplasmic p65 ratio, rep 1: 1.94
- nuclear/cytoplasmic p65 ratio, rep 2: 1.72
- low cell count flag: enough cells to score
- outcome: inactive

Ly6g6c
- p65 translocation robust z-score: -1.16
- nuclear/cytoplasmic p65 ratio, rep 1: 1.48
- nuclear/cytoplasmic p65 ratio, rep 2: 1.42
- low cell count flag: enough cells to score
- outcome: inactive

Tmed11
- p65 translocation robust z-score: -0.39
- nuclear/cytoplasmic p65 ratio, rep 1: 1.34
- nuclear/cytoplasmic p65 ratio, rep 2: 1.51
- low cell count flag: enough cells to score
- outcome: inactive

Entries listed so far marked active, once more:
Nfam1
- p65 translocation robust z-score: -1.63
- nuclear/cytoplasmic p65 ratio, rep 1: 1.05
- nuclear/cytoplasmic p65 ratio, rep 2: 1.1
- low cell count flag: enough cells to score
- outcome: active
